Reference: patent US20250000903A1, “EXPANSION PROCESSES AND AGENTS FOR TUMOR INFILTRATING LYMPHOCYTES” (Iovance Biotherapeutics, Inc., priority 2021, published 2025)
At least one compound was matched to its structure with a doubt left.

Experiments:
Assay type in all cases: cell-based, human
[1] = tested on: tumor-infiltrating lymphocytes (TIL); assay: TIL ex vivo expansion (pre-REP/REP) with DAC: expansion potential; details: DAC 10, 30, 100 nM added at pre-REP and REP or REP only
[2] = tested on: tumor-infiltrating lymphocytes (TIL); assay: Phenotypic characteristics of post-REP TIL expanded with DAC
[3] = tested on: tumor-infiltrating lymphocytes (TIL); assay: Functional characteristics of post-REP TIL expanded with DAC (cytokines, killing, repeated stimulation)
[4] = DAC 10, 30, 100 nM, post-REP TIL
[5] = DAC-treated TIL following repeated stimulation

Structure (SMILES): Nc1ncn([C@H]2C[C@H](O)[C@@H](CO)O2)c(=O)n1 [DAC, Decitabine]
- TIL expansion [1]: decrease
- expression of costimulatory receptors ([2]; DAC 100 nM in the REP stage): increased
- inhibitory receptor expression ([2]; DAC 100 nM in the REP stage): reducing
- CD4+ to CD8+ ratio [2, 4]: increase
- expression of CD25, CD28, and ICOS [2, 4]: increased
- expression of IL-7R and the transcription factors BATF, Eomes, and KLF2 [2, 4]: increase
- expression of inhibitory receptors like PD-1 and TIGIT [2, 4]: reducing
- frequency of central memory-like cells (CD45RA-CCR7+) [2, 4]: increase
- frequency of TNFα+ and IFNγ+TNFα+ CD8+ TIL [3, 4]: increased
- TOX levels [3, 5]: reduced
- frequency of PD1+TIM3+CD8+ TIL [3, 5]: lower
- killing activity ([3]; DAC-treated TIL, sustained even after repeated stimulation): increased
